Test results reported in PubChem BioAssay AID1347076 (National Center for Advancing Translational Sciences (NCATS), 2019).
In all, about 400,000 compounds went through this assay and about 13,000 (3.2%) were called active. The inconclusive results got no clear call from the source; some entries with a clear call stand among them for comparison. The call rests on the fitted dose curve; in most records, active means well fitted cell-killing curve with a large enough effect; inconclusive means small, poorly fitted or top-dose-only effect, or effect the other way; inactive means flat fitted curve, though single readings scatter. Where the call is inconclusive, the potency comes from a doubtful curve fit.

Experiment: qHTS assay for MDR1-selective chemotherapeutics: Primary screen using the drug-selected MDR subline cells KB-V1; further: nearly all actives have a fitted effect of over 60% in size
Conditions: KB-V1 MDR cells viability, CellTiter-Glo, 72 h; series mostly up to 46.1 µM
How it was run: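 Potencies derive from concentration-effect curves fitted to normalized luminescence (CellTiter-Glo) of KB-V1 cells treated for 72 h at 37 degrees C in phenol-red-free DMEM containing 10% FBS.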
Potency means the concentration at half of the fitted maximal effect.

Structure (SMILES)	Potency
Cc1cccc(CS(=O)(=O)c2ncc(Cl)c(C(=O)Nc3c(C)cccc3C)n2)c1	inconclusive: 13 µM [cytotoxic, partial curve, poor fit]
CC1CN(c2cc(-c3ccccc3)c3ccccc3n2)CC(C)O1 (stereo not given)	inactive
CCOC(=O)N1CCC(Nc2c(N3CCN(c4cc(Cl)ccc4C)CC3)c(=O)c2=O)CC1	inconclusive: 18.4 µM [cytotoxic, single point]
COc1ccc(NC(=O)CSc2ccc3nnc(-c4cccnc4)n3n2)cc1	inactive
O=C(NC(Cc1c[nH]c2ccccc12)C(=O)Nc1ccc(OC(F)(F)F)cc1)c1cccs1 (stereo not given)	inconclusive: 8.2 µM [cytotoxic, partial curve]
Cc1ccc(-c2nc3cnccn3c2Nc2ccc3c(c2)OCO3)cc1	inconclusive: 20.6 µM [cytotoxic, single point]
N/C(CN1CCCCC1)=N\S(=O)(=O)c1cc(Cl)cc(Cl)c1	inconclusive: 0.0046 µM [cytotoxic, full curve, poor fit]
CCN(CC)CCNC(=O)c1cn(CC)c2cc(N3CCN(C(=O)c4ccco4)CC3)c(F)cc2c1=O	inactive
O=C(NNc1ccc(F)cc1)c1c(F)cccc1Cl	inactive
Cn1cnnc1SCC(=O)c1ccc(O)c(O)c1	inconclusive: 29.1 µM [rising, single point]
CCCn1c(SCC(=O)NC(C)C23CC4CC(CC(C4)C2)C3)n[nH]c1=O (stereo not given)	inconclusive: 16.4 µM [cytotoxic, single point]
CCOC(=O)N1CCN(Cc2nc3c(c(=O)n(C)c(=O)n3C)n2CCCc2ccccc2)CC1	active: 9.2 µM
CC1CCN(S(=O)(=O)c2cc3c4c(c2)CCN4C(=O)CC3)CC1	inactive
COc1ccc(C2=NN(C(N)=S)C(c3ccccc3)C2)cc1 (stereo not given)	inconclusive: 20.6 µM [cytotoxic, single point]
Cc1ccc(S(=O)(=O)N2CCOCC2)cc1C(=O)NCCN1C(=O)S/C(=C\c2ccccc2Cl)C1=O	inconclusive: 20.6 µM [cytotoxic, single point]
NNc1nc(C(F)(F)F)nc2ccccc12	inactive
Cc1cccc(-c2cc(C(=O)N3CCCc4ccccc43)c3ccccc3n2)c1	inconclusive: 29.1 µM [cytotoxic, single point]
Clc1ccccc1Nc1nnc(-c2ccncc2)s1	active: 9.2 µM
Cc1cc(C)n(-c2nc3c(c(=O)[nH]c(=O)n3C)n2C)n1	inconclusive: 23.1 µM [rising, single point]
CC(CNC(=O)c1ccc2nc(Cc3ccccc3)oc2c1)c1ccccc1 (stereo not given)	inactive

Given comma-delimited: entries from further up
Structure (SMILES),Potency
CCOC(=O)N1CCC(Nc2c(N3CCN(c4cc(Cl)ccc4C)CC3)c(=O)c2=O)CC1,"inconclusive: 18.4 µM [cytotoxic, single point]"
CCCn1c(SCC(=O)NC(C)C23CC4CC(CC(C4)C2)C3)n[nH]c1=O (stereo not given),"inconclusive: 16.4 µM [cytotoxic, single point]"
